Measurements as given in PubChem BioAssay AID588590 (National Center for Advancing Translational Sciences (NCATS), 2011).
Hit rate of the full screen: of about 390,000 compounds, about 4,000 (1%) were called active. Inconclusive results, whose numbers are uncertain, are shown with a selection of clear calls. The call rests on the fitted dose curve; in most records, active means well fitted inhibition curve with a large enough effect; inconclusive means small, poorly fitted or top-dose-only effect, or another doubt; inactive means no such curve, though single readings can be large or run the other way. A potency beside an inconclusive call is a rough fit, not a confirmed value.

Sequences of proteins named here, by UniProt entry; tags and fusion partners are left off. A change or cut given only in a name is not applied to a line headed by its entry.
UniProt Q9UNA4: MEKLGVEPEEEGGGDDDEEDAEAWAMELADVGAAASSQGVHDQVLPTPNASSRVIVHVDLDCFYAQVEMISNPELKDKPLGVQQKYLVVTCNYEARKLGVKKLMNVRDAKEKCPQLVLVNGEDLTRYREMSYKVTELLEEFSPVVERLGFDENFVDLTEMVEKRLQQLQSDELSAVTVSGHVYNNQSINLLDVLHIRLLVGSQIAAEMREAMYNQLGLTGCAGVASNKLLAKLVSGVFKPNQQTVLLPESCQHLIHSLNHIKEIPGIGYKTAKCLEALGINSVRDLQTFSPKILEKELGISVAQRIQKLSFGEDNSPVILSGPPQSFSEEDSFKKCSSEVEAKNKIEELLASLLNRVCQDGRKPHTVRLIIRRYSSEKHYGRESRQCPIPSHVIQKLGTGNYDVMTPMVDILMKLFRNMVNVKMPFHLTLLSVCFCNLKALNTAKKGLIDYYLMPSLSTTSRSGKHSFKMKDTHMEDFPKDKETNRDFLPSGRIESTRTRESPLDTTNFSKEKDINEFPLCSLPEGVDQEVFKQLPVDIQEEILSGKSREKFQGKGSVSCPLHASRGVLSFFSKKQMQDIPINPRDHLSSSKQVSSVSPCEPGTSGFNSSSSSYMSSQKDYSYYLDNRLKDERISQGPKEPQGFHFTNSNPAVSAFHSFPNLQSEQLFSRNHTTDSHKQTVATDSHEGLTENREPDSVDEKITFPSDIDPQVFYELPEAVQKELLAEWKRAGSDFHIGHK

Each compound was assayed against DNA polymerase iota (Homo sapiens) (UniProt Q9UNA4) (assay: qHTS for Inhibitors of Polymerase Iota). Settings: Pol iota fluorescent replication assay, 10 min; series mostly up to 115 µM; activity, negative = inhibition: at the top concentration.
Procedure, shortened: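 Pol iota at 10 nM preincubated 15 min with compounds at room temperature; reaction started with fluorescent substrate, 50 nM final. Fluorescence read kinetically at 0 and 10 min; buffer-only wells as negative control.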
Potency means the concentration at half of the fitted maximal effect.

Potency, active:
CNc1ccc(C=C2C=CC=C2)cc1 5.01 µM

Potency, inconclusive:
Brc1ccc([C@H]2CN3CCSC3=N2)cc1 15.8 µM [inhibitor, partial curve, poor fit], CCOc1ccc(-n2c(SCC(N)=O)nc3sc4c(c3c2=O)CCN(C)C4)cc1 17.8 µM [inhibitor, partial curve], Cc1cc(C)nc(NS(=O)(=O)c2ccc(NC(=O)Nc3ccccc3F)cc2)n1 79.4 µM [inhibitor, single point], CC1(C)NC(=O)N(CCOc2ccc3c(c2)CCC3)C1=O 100 µM [inhibitor, partial curve, poor fit], CCOC(=O)C1(CC2CCCCO2)CCN(Cc2nc3ccccc3nc2C)CC1 (centres undefined) 89.1 µM [inhibitor, single point], O=C(Nc1ccc(OC(F)(F)C(F)F)c(NC(=O)c2cccc(F)c2)c1)c1cccc(F)c1 112 µM [inhibitor, partial curve, poor fit], CCOC(=O)/C(=N\Nc1ncnc2ccccc12)c1ccc(C)cc1 22.4 µM [inhibitor, partial curve, poor fit], CSc1ccc(-c2sc(Nc3ccccc3)n[n+]2-c2ccc(F)cc2)cc1 31.6 µM [inhibitor, partial curve, poor fit], CCCc1ccc(C(=O)/C=C/N(C)C)cc1 0.794 µM [inhibitor, full curve, poor fit], Cc1ccc(N2CC(C(=O)NCCS(=O)(=O)N3CCN(c4ccccc4)CC3)CC2=O)cc1C (centres undefined) 89.1 µM [inhibitor, single point], O=C(Nc1ccc2nc(-c3cccs3)[nH]c2c1)c1ccco1 2.82 µM [inhibitor, full curve, poor fit], O=C(CCc1ccccc1)N(Cc1cccnc1)c1nc2c(F)cc(F)cc2s1 79.4 µM [inhibitor, partial curve], O=C(O)c1ccc(Nc2nc(-c3ccccc3)c3cc(Br)ccc3n2)cc1 79.4 µM [inhibitor, single point], CCCN(CC(=O)Nc1ccccc1C)C(=O)c1ccc(S(=O)(=O)N2CCCCC2)cc1 100 µM [inhibitor, partial curve, poor fit], CCCCN(C(=O)C1CC(=O)N(c2ccc3c(c2)OCCO3)C1)c1c(N)n(CCC)c(=O)[nH]c1=O (centres undefined) 70.8 µM [inhibitor, single point], CCOC(=O)C1CCN(C2=C(NS(=O)(=O)c3ccc(Br)cc3)C(=O)c3ccccc3C2=O)CC1 20 µM [inhibitor, partial curve, poor fit], O=C(c1ccc(S(=O)(=O)NCc2ccco2)cc1)N1CCN(c2ccccc2)CC1 44.7 µM [inhibitor, partial curve], O=C(NCCN1C(=O)S/C(=C\c2ccc(OC(F)F)cc2)C1=O)C1=COCCO1 44.7 µM [inhibitor, full curve, poor fit], Cc1ccc2c(cnn2C(=O)CCC(=O)NCc2ccccc2Cl)c1 17.8 µM [inhibitor, full curve, poor fit], COc1ccccc1OCCn1c(SCC(N)=O)nc2ccccc21 20 µM [inhibitor, full curve, poor fit], Cc1c(NC(=O)Cc2ccc(F)cc2)cccc1-c1nc2cccnc2s1 70.8 µM [inhibitor, partial curve], CCC(=O)N1CCc2cc(S(=O)(=O)CCC(=O)N3CCN(c4ccccc4Cl)CC3)ccc21 89.1 µM [inhibitor, single point], Cc1nn(Cc2ccccc2Cl)c2sc(C(=O)OC3CCCC3=O)cc12 (centres undefined) 7.94 µM [inhibitor, partial curve, poor fit], O=C(N/N=C/c1ccco1)c1csc2c1CCCC2 39.8 µM [inhibitor, single point], O=C(NCC12CC3CC(CC(C3)C1)C2)c1nn2c(c1Cl)NC(c1ccco1)CC2C(F)(F)F (centres undefined) 22.4 µM [inhibitor, partial curve, poor fit], COc1ccc(-c2csc(NC(=O)c3ccccc3NS(=O)(=O)c3ccc(F)c(F)c3)n2)cc1 35.5 µM [inhibitor, single point], Cc1cc(C)nc(SCC(=O)Nc2ccc3c(c2)OCO3)n1 89.1 µM [inhibitor, single point], N#CNC(=Nc1cccc(F)c1)SCc1ccccc1 79.4 µM [inhibitor, partial curve, poor fit], Cc1cc2n(n1)C(c1ccccc1)CC(c1ccc(Br)cc1)=N2 (centres undefined) 5.01 µM [inhibitor, full curve, poor fit], COc1cccc(-c2nnc(-c3cc4cc(Cl)ccc4oc3=O)o2)c1 89.1 µM [inhibitor, single point], CCOc1ccc(Nc2nc(Cc3nnc(SCC(=O)O)o3)cs2)cc1 39.8 µM [inhibitor, full curve], O=C(N/N=C/c1ccc(O)c(O)c1)c1ccc(CSc2cccc3cccnc23)cc1 11.2 µM [inhibitor, full curve, poor fit], O=C(O)c1ccccc1Nc1ccccc1 25.1 µM [inhibitor, single point], O=C(Nc1ccc(OCC(F)(F)C(F)F)c(C(F)(F)F)c1)c1ccccc1 8.91 µM [inhibitor, single point], O=C(OCC(=O)N(C1CCCCC1)C1CCCCC1)c1cnccn1 39.8 µM [inhibitor, single point], Cc1ccc(NNC(=O)Nc2ccc(Cl)cc2)nn1 14.1 µM [inhibitor, full curve, poor fit], CCOC(=O)Cc1csc(NC(=O)c2ccc(Br)cc2)n1 22.4 µM [inhibitor, full curve, poor fit], Cn1c(=O)c2c(nc(OCc3cccnc3)n2Cc2c(F)cccc2Cl)n(C)c1=O 2.51 µM [inhibitor, full curve], CCOC(=O)N1CCC(Nc2c(NCCCN(CC)c3cccc(C)c3)c(=O)c2=O)CC1 28.2 µM [inhibitor, full curve, poor fit], COc1cc(-c2noc(CSc3nc(-c4ccc(F)cc4)cc(=O)[nH]3)n2)cc(OC)c1OC 89.1 µM [inhibitor, partial curve, poor fit], Cc1ccc(CNC(=O)CCC(=O)N2Cc3ccccc3Oc3ncccc32)cc1 89.1 µM [inhibitor, single point], Cc1ccccc1NC(=O)CN1C(=O)S/C(=C\c2cccn2-c2cccc(C(=O)O)c2)C1=O 20 µM [inhibitor, full curve, poor fit], CC1CCc2cc(F)cc3c(O)c(C(=O)NCC4CCCO4)c(=O)n1c23 (centres undefined) 25.1 µM [inhibitor, partial curve, poor fit], CCOC(=O)c1c(/N=C/c2cccc([N+](=O)[O-])c2O)sc2c1CCC2 15.8 µM [inhibitor, full curve], CN(C)CC/C=C1\c2cc(Cl)ccc2Sc2cc(F)c(F)cc21 100 µM [inhibitor, partial curve, poor fit], O=C(O)c1ccc(S(=O)(=O)NC2CCCCCC2)cc1 89.1 µM [inhibitor, single point], C#CCOCCOCCOCCNc1nc(N2CCN(C(=O)[C@H](CCCN=C(N)N)n3cc(C(N)[C@@H](C)CC)nn3)CC2)nc(N2CCN(C(=O)[C@H](CC(N)=O)n3cc([C@@H](N)CC(N)=O)nn3)CC2)n1 (some centres undefined) 15.8 µM [inhibitor, partial curve, poor fit]

activity, negative = inhibition, inactive:
Cn1c(SCC(=O)O)nnc1-c1ccc(NC(=O)c2ccc(Cl)c(Cl)c2)cc1 12.4%, CCOc1ccc(-c2nc(CNC(=O)NC3CCCCC3)c(C)o2)cc1 68.8%, COc1ccc(S(=O)(=O)N(Cc2ccccc2)c2ccccc2C(=O)Nc2ccccc2C(=O)NCc2ccco2)cc1 -4.63%, OC(c1ccccc1)C(Nc1ccccn1)c1ccccc1 (centres undefined) 11%, CC(=O)NC(Cc1ccc(O)cc1)C(=O)NCC(N)C(=O)c1ccccc1 (centres undefined) -10.4%, O=C(Nc1nnc(SCc2cc(=O)c3ccccc3[nH]2)s1)c1ccccc1 9.39%, C=CCOc1cccc(C2C(C(=O)c3ccco3)=C(O)C(=O)N2Cc2ccncc2)c1 (centres undefined) 8.55%, COc1ccc(S(=O)(=O)N2CCCCC2)cc1C(=O)Nc1cc(C)on1 20.8%, COc1ccc(-c2cn3c(n2)sc2cc(C(=O)NCc4cccs4)ccc23)cc1 28.6%, CCOc1ccc(C(=O)Nc2ccc(N3CCN(C)CC3)cc2)cc1Br 37.5%, COCCCNC(=O)c1[nH]c2cc(OC)ccc2c1Sc1ccc(C)cc1 15.2%, O=C(O)c1ccccc1CSc1ncn[nH]1 91.2%, COc1cc(C2Nc3ccccc3C(=O)N2Cc2ccco2)ccc1O (centres undefined) 24.7%, COc1ccccc1/C=C/C(=O)OC(C)CN1CCCCC1 (centres undefined) 58.3%, COc1ccc(-n2nc(C(=O)N3CCCCC3)c3ccccc3c2=O)cc1 14.9%, COc1ccccc1NC(=O)C1=C(C)Nc2nc3ccccc3n2C1c1cccc(Br)c1 (centres undefined) 33%
